These results are taken from the supplement of paper PMC10849652.

Amino acid sequences for entries named in this document (tags omitted). A change or cut given only in a name is not applied to a line headed by its entry.
UniProt O15117, whole entry, looked up: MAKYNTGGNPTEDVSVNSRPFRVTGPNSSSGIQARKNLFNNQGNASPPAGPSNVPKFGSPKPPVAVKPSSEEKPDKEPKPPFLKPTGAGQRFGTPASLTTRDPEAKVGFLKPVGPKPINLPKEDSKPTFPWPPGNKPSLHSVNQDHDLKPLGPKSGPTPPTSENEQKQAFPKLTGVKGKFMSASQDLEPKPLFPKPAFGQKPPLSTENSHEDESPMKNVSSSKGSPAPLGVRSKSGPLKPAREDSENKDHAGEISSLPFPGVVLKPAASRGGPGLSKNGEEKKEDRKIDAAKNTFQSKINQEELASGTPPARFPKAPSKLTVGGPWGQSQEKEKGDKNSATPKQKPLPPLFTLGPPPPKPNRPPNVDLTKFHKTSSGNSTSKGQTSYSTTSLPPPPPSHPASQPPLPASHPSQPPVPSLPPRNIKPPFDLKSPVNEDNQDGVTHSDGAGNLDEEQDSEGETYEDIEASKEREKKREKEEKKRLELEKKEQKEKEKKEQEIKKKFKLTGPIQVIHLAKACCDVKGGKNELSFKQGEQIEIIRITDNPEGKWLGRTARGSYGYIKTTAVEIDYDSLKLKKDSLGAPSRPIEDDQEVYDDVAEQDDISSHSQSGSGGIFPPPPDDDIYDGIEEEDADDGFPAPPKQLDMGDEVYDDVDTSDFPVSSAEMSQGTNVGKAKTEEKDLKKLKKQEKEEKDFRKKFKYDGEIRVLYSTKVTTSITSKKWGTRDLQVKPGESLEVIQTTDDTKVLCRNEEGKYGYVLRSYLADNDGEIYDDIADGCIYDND
UniProt Q8IY81: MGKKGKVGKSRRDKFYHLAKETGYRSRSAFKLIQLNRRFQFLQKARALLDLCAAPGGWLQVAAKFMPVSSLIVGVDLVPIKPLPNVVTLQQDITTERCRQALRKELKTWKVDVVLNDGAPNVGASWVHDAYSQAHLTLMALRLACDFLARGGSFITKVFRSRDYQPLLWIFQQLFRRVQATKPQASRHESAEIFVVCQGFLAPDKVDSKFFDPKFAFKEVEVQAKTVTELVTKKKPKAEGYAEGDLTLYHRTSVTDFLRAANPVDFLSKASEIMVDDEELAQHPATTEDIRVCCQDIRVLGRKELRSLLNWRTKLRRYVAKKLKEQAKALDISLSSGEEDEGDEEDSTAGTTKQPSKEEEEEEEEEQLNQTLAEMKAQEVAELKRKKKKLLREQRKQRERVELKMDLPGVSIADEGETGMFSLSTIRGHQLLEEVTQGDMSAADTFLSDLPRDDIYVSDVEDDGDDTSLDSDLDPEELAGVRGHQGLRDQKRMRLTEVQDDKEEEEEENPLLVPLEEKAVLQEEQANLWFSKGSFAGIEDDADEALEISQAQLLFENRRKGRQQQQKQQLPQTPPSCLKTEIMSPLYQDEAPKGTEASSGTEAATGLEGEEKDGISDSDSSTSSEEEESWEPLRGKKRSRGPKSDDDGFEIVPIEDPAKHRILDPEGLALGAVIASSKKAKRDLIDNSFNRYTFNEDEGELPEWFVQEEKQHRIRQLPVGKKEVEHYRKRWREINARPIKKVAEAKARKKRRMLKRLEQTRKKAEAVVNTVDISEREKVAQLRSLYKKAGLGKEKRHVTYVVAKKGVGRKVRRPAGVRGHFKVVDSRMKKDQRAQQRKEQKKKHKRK
UniProt P06241, whole entry, looked up: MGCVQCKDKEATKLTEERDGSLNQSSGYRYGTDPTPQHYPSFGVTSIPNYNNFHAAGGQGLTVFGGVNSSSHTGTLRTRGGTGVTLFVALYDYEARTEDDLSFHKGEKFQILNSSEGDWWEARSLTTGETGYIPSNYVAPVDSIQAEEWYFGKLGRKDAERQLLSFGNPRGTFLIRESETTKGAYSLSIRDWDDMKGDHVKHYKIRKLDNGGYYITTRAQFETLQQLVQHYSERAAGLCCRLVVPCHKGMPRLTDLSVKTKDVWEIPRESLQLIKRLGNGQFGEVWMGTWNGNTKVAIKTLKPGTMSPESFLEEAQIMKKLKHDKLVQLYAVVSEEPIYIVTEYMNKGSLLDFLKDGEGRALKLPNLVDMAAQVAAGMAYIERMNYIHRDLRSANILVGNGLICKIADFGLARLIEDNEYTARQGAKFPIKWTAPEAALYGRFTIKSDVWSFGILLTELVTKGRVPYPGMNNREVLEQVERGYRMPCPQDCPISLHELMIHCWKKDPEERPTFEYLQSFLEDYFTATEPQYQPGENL
UniProt Q9BWH2: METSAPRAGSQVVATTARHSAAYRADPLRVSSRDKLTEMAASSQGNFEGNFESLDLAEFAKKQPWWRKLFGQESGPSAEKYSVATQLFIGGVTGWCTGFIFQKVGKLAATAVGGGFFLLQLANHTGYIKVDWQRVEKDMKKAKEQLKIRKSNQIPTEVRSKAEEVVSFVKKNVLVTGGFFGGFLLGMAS
UniProt Q13480: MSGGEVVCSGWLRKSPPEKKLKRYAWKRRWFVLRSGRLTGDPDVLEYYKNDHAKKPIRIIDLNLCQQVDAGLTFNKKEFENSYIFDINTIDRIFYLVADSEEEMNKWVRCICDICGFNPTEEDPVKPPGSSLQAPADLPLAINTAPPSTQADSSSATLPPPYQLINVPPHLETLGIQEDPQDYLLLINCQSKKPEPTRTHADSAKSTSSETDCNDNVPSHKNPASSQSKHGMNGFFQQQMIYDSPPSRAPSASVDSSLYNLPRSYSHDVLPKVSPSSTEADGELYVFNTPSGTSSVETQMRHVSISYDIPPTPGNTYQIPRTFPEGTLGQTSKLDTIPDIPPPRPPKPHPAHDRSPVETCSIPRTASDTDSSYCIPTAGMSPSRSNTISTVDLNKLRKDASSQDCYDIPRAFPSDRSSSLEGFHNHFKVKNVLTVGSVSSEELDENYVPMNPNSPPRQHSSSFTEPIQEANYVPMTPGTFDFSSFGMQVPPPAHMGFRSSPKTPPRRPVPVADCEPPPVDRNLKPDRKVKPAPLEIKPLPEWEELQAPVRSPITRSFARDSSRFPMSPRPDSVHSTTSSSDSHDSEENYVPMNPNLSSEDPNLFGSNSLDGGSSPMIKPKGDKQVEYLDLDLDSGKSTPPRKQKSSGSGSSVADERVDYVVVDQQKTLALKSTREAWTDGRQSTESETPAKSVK
UniProt P48507: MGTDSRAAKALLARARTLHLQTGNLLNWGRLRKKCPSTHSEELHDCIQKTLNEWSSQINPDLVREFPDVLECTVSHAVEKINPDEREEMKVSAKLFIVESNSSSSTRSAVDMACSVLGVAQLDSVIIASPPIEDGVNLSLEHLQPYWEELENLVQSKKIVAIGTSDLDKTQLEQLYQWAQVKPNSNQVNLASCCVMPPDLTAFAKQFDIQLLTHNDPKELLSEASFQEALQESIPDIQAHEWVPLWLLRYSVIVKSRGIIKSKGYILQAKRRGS
UniProt P48506: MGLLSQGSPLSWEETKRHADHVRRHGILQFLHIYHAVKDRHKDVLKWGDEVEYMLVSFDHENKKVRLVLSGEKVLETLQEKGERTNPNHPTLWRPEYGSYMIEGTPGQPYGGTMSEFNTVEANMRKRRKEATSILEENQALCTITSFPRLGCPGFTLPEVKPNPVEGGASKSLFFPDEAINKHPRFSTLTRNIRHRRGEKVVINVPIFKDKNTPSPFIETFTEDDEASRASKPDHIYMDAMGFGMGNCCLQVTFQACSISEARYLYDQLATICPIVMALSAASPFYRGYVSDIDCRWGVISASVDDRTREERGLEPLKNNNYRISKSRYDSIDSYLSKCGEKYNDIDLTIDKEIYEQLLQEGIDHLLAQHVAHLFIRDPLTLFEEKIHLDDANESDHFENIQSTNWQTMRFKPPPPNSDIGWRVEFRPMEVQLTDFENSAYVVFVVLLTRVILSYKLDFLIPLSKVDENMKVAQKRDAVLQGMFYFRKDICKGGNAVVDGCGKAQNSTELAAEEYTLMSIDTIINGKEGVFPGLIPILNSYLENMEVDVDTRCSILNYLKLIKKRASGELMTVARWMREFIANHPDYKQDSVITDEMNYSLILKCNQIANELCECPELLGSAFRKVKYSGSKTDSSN
UniProt Q86SR1: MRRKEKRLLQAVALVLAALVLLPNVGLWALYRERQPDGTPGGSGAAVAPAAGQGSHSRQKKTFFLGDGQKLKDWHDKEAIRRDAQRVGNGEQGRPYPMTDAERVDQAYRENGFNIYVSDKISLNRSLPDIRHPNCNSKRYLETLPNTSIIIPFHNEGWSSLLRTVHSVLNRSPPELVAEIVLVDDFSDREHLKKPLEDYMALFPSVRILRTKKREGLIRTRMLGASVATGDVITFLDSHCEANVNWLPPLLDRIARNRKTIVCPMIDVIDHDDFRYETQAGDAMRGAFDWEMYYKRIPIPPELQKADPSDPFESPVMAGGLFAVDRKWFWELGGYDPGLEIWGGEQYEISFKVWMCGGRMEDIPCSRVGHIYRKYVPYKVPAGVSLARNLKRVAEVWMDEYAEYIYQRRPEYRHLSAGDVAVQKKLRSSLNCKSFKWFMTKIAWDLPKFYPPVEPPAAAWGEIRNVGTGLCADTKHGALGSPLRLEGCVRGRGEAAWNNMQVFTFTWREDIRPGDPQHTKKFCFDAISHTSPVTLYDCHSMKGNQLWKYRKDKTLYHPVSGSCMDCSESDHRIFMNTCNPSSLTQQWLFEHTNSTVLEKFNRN
UniProt Q10472: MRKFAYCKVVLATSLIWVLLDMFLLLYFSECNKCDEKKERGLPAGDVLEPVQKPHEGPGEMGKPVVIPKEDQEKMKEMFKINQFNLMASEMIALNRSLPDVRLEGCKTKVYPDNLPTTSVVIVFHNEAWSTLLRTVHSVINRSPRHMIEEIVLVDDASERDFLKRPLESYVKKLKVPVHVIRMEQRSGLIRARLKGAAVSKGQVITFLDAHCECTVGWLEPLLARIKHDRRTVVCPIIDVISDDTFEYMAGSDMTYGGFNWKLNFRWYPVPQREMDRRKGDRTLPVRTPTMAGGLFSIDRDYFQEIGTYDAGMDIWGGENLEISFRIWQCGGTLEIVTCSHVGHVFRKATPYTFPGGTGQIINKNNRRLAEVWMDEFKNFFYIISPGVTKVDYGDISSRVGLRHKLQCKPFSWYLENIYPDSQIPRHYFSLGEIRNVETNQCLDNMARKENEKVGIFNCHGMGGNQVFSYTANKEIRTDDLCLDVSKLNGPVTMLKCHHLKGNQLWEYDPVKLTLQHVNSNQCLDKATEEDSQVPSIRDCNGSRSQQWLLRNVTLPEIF
UniProt Q06546: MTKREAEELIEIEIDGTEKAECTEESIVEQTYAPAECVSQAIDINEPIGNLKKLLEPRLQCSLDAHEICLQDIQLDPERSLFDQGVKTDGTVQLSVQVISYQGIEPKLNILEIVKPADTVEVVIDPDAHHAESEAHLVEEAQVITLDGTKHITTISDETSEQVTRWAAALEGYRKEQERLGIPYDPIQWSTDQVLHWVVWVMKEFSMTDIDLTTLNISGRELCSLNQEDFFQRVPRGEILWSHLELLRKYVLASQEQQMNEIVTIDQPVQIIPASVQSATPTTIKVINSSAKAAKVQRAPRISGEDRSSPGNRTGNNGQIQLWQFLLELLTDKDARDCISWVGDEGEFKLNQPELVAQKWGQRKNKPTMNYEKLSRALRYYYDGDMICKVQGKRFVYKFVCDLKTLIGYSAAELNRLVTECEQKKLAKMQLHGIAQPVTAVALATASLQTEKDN
UniProt P50395: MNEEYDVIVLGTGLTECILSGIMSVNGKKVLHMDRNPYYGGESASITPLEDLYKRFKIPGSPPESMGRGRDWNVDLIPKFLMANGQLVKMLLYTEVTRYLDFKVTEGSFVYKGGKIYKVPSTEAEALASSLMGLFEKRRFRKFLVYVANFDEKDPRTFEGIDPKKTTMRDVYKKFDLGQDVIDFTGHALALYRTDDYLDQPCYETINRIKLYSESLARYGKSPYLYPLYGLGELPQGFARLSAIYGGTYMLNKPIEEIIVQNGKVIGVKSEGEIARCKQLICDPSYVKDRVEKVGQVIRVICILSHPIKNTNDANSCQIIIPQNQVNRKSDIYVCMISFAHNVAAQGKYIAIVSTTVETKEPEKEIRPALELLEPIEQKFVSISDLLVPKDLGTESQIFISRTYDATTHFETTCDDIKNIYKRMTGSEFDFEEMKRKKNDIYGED
UniProt P31150: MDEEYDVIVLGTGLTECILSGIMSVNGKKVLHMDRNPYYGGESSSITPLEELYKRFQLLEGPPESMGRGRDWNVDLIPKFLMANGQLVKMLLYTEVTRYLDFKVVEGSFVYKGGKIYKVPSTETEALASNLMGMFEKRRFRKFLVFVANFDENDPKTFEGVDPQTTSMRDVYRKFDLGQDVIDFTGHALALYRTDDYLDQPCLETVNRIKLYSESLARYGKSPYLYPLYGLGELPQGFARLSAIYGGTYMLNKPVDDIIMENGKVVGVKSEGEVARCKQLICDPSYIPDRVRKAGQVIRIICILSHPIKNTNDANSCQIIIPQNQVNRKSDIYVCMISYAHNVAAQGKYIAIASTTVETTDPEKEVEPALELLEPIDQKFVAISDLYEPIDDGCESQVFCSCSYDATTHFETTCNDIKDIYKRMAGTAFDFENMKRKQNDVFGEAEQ

Some of the results follow.

Compound in one assay: Cc1sc2c(c1C)C(c1ccc(Cl)cc1)=N[C@@H](CC(=O)OC(C)(C)C)c1nnc(C)n1-2
Nature of the assay: log2 fold change, soluble protein after heating vs DMSO (PISA); higher = thermal stabilisation; K562 lysate, 10 uM; active = over 0.2 and 3.5 SD of the protein, either way, in both replicates (recomputed). Summed up:
(§1)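 Quantification was by TMTpro 16plex LC-MS/MS with equalised channel sums, applied to the supernatant after 21,000xg for 90 min. Samples were crude K562 extract at 1 mg/mL protein in PBS pH 7.4 with 1 mM MgCl2, treated with 10 μM compound for 30 min, heated for 3 min across 48°C-58°C, pooled and brought to 0.5% NP-40 at 4°C. Values are log-two fold changes in thermal stability relative to solvent controls, from duplicates.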
In the case of GFM1 (UniProt Q96RP9), the log2 fold change is inactive: 0.032. On to GART (UniProt P22102), for which the log2 fold change was inactive: 0.057. FYB1 isoform 3 (UniProt O15117): the log2 fold change was inactive: 0.008. The same measure, in the same setting: the figure for FPGT (UniProt O14772) is inactive: -0.006; for FTSJ3 (UniProt Q8IY81) it is inactive: -0.003; for GAR1 (UniProt Q9NY12) it is inactive: -0.01. Take FYN (UniProt P06241): the log2 fold change is inactive: 0.019. For FUNDC2 (UniProt Q9BWH2), the log2 fold change is inactive: -0.061. Turning to GDPD1 (UniProt Q8N9F7), the log2 fold change is inactive: 0.024. In the case of GADD45GIP1 (UniProt Q8TAE8), the log2 fold change is inactive: 0.033. On the same count and under the same terms, the figure for FOXRED1 (UniProt Q96CU9) is inactive: 0.017; for GBF1 (UniProt Q92538) it is inactive: 0.016; for GAB1 isoform 2 (UniProt Q13480) it is inactive: -0.124.

Turning to FOXP1 (UniProt Q9H334), the log2 fold change was inactive: 0.003.

As to FUBP1 isoform 2 (UniProt Q96AE4), the log2 fold change is inactive: -0.009.

As to G6PD isoform 2 (UniProt P11413), the log2 fold change is inactive: 0.053.

FURIN (UniProt P09958): the log2 fold change is inactive: 0.017. Regarding FYCO1 isoform 4 (UniProt Q9BQS8), the log2 fold change was inactive: 0.023. As to GCLM (UniProt P48507), the log2 fold change was inactive: 0.008. As to GABPB1 isoform 3 (UniProt Q06547), the log2 fold change was inactive: -0.024. As for GAPVD1 isoform 6 (UniProt Q14C86), the log2 fold change is inactive: -0.011. On to FYTTD1 (UniProt Q96QD9), for which the log2 fold change was inactive: 0.092. Turning to GATAD2B (UniProt Q8WXI9), the log2 fold change was inactive: 0.051. Still for that read-out and setting: the value for GFER (UniProt P55789) was inactive: -0.008; that for FRRS1 (UniProt Q6ZNA5) was inactive: -0.066.

Turning to GCLC (UniProt P48506), the log2 fold change was inactive: -0.037. For GALK1 isoform 2 (UniProt P51570), the log2 fold change was inactive: 0.006. For GALNT10 (UniProt Q86SR1), the log2 fold change is inactive: -0.112. As to GALNT1 (UniProt Q10472), the log2 fold change is inactive: -0.05. In the case of GABPA (UniProt Q06546), the log2 fold change was inactive: 0.031. For the target GDI2 (UniProt P50395), the log2 fold change is inactive: 0.011.

Consider GDI1 (UniProt P31150), for which the log2 fold change is inactive: 0.025. Regarding FTH1 (UniProt P02794), the log2 fold change was inactive: -0.013.

Regarding GEMIN6 (UniProt Q8WXD5), the log2 fold change was inactive: 0.022.

Compound in a further assay: c1ccc([C@@H]2C[C@H]2NC2CCNCC2)cc1
The assay is described as above. Summed up:
as §1
For the target GFM1 (UniProt Q96RP9), the log2 fold change was inactive: 0.007. Turning to GART (UniProt P22102), the log2 fold change was inactive: 0.042.

In the case of FYB1 isoform 3 (UniProt O15117), the log2 fold change was inactive: 0.051.

As to FPGT (UniProt O14772), the log2 fold change is inactive: 0.104. For FTSJ3 (UniProt Q8IY81), the log2 fold change is inactive: 0.083.

Consider GAR1 (UniProt Q9NY12), for which the log2 fold change was inactive: 0.078. On to FYN (UniProt P06241), for which the log2 fold change is inactive: -0.112. In the case of FUNDC2 (UniProt Q9BWH2), the log2 fold change is inactive: 0.025. With GDPD1 (UniProt Q8N9F7), the log2 fold change was inactive: -0.036. On to GADD45GIP1 (UniProt Q8TAE8), for which the log2 fold change is inactive: 0.051. Regarding FOXRED1 (UniProt Q96CU9), the log2 fold change is inactive: -0.014. As to GBF1 (UniProt Q92538), the log2 fold change is inactive: 0.011. For the target GAB1 isoform 2 (UniProt Q13480), the log2 fold change was inactive: -0.099. Take FOXP1 (UniProt Q9H334): the log2 fold change was inactive: 0.034. For the target FUBP1 isoform 2 (UniProt Q96AE4), the log2 fold change was inactive: -0.02.

Take G6PD isoform 2 (UniProt P11413): the log2 fold change is inactive: 0.075.

With FURIN (UniProt P09958), the log2 fold change was inactive: 0.035. FYCO1 isoform 4 (UniProt Q9BQS8): the log2 fold change was inactive: -0.1.

Regarding GCLM (UniProt P48507), the log2 fold change is inactive: 0.006. With GABPB1 isoform 3 (UniProt Q06547), the log2 fold change is inactive: -0.025.

GAPVD1 isoform 6 (UniProt Q14C86): the log2 fold change was inactive: 0.063.

With GATAD2B (UniProt Q8WXI9), the log2 fold change was inactive: 0.056.

In the case of GFER (UniProt P55789), the log2 fold change is inactive: 0.034.

Consider FRRS1 (UniProt Q6ZNA5), for which the log2 fold change was inactive: -0.2. In the case of GCLC (UniProt P48506), the log2 fold change was inactive: -0.006. Consider GALK1 isoform 2 (UniProt P51570), for which the log2 fold change was inactive: 0.073. For the target GALNT1 (UniProt Q10472), the log2 fold change was inactive: -0.036. Consider GABPA (UniProt Q06546), for which the log2 fold change is inactive: -0.085.

Consider GDI2 (UniProt P50395), for which the log2 fold change was inactive: 0.083. For GDI1 (UniProt P31150), the log2 fold change is inactive: 0.023. For the target FTH1 (UniProt P02794), the log2 fold change was inactive: 0.009. On the same count and under the same terms, the value for GEMIN6 (UniProt Q8WXD5) was inactive: -0.021.
